No constants are given. Whether binding was seen depends on the method and setting. Some binding calls cover weakened binding; strength is not graded here. For some assays here: Tags and fused reporters may be left off the sequences shown.
T1: CD28H (counter-receptor of B7-H5) (human) (UniProt Q96BF3)
T1 sequence: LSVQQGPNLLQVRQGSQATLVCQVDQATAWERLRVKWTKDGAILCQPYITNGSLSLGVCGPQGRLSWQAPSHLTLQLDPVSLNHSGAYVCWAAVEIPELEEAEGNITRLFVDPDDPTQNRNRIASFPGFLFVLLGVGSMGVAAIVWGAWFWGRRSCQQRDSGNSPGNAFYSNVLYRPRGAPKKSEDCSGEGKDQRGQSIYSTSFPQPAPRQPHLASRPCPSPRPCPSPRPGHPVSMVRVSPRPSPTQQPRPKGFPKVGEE


How the values were obtained:
[1] = molecular target: B7-H5 Ig fusion (extracellular domain of B7-H5 fused to a murine IgG2a sequence) (human); assay: inhibition of B7-H5 Ig stimulation of T cells (figure legend)
[2] = molecular target: T1, CD28H (counter-receptor of B7-H5) (human); assay: inferred from T cell stimulation assay with B7-H5 Ig

| binding [1] | binding [2] | Binder |
| --- | --- | --- |
| binds | – | anti-human B7-H5 antibody 2D3 (hybridoma clone 2D3) (antibody, V domains shown, constant regions are not; also called Anti-Human B7-H5 Clone 2D3; 2D3 mAb) VH: QVQLQQSGAELVKPGASVKLSCKASGYTFTSHDINWVRQRPELGLEWIGWIFPGDGSTKFNEKFKGKATLTTDKSSSTAYIQLSRLTSEDSAVYFCARNSFYSMDYWGQGTSVTVSS VL: DIVMSQSPSSLAVSAGEKVTMSCKSSQSLLNSRTRKNQLAWYQQKPGQSPKLLIYWAFIRESGVPDRFTGSGSGTDFTLTISSVQAEDLAVYYCKQSYNLRTFGGGTKLEIK |
| – | binds | B7-H5 Ig fusion (extracellular domain of B7-H5 fused to a murine IgG2a sequence) (Fc fusion) IFPLAFFIYVPMNEQIVIGRLDEDIILPSSFERGSEVVIHWKYQDSYKVHSYYKGSDHLESQDPRYANRTSLFYNEIQNGNASLFFRRVSLLDEGIYTCYVGTAIQVITNKVVLKVGVFLTPVMKYEKRNTNSFLICSVLSVYPRPIITWKMDNTPISENNMEETGSLDSFSINSPLNITGSNSSYECTIENSLLKQTWTGRWTMKDGLHKMQSEHVSLSCQPVNDYFSPNQDFKVTWSRMKSGTFSVLAYYLSSSQNTIINESRFSWNKELINQSDFSMNLMDLNLSDSGEYLCNISSDEYTLLTIHTVHVEPSQETEPRGPTIKPCPPCKCPAPNLLGGPSVFIFPPKIKDVLMISLSPIVTCVVVDVSEDDPDVQISWFVNNVEVHTAQTQTHREDYNSTLRVVSALPIQHQDWMSGKEFKCKVNNKDLPAPIERTISKPKGSVRAPQVYVLPPPEEEMTKKQVTLTCMVTDFMPEDIYVEWTNNGKTELNYKNTEPVLDSDGSYFMYSKLRVEKKNWVERNSYSCSVVHEGLHNHHTTKSFSRTPGK |

Source: patent US20160096891A1 (AstraZeneca / MedImmune, published 2016)
